# Assay results

The results are deposited in PubChem (AID1053133; Broad Institute, 2014).

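Vaccinia-infected cells with a two-color viral stage reporter; Venus fluorescence read on a plate reader; the cell line is not named here; timing not stated here. The test concentration is not given here. Percent change in Venus reporter signal; lower (more negative) values mean stronger inhibition of that viral stage.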

Values are in %. The controls that fix the scale are not given here. Common to all entries: measured here: Venus reporter, other viral stage. Part of the compounds only, not a random draw; the main read-out is not listed here.

structure | activity change (Venus) (%)
N#Cc1ccc(-c2ccc([C@H]3[C@H](CO)N4CCCCN(C(=O)Nc5ccc(F)cc5)C[C@@H]34)cc2)cc1 | -43.86
C[C@H](CO)N1C[C@H](C)[C@H](CN(C)C(=O)Cc2ccncc2)Oc2ncc(Br)cc2C1=O | -60.65
CC(C)(C)[S@@](=O)N1Cc2cc(C(=O)N3CCCCC3)nc(-c3cccc(-c4ccc(F)cc4)c3)c2[C@H]1CCO | -2.293
C[C@H](CO)N1C[C@H](C)[C@H](CN(C)S(=O)(=O)c2ccc(C(F)(F)F)cc2)OCc2ccccc2-c2ccccc2C1=O | -40.95
O=C(c1ccccc1)N1CC(=O)N2[C@H](CO)[C@H](c3ccc(C#Cc4ccccc4)cc3)[C@H]2C1 | -66.77
C[C@H]1CN([C@@H](C)CO)C(=O)Cc2cc(NS(C)(=O)=O)ccc2O[C@H]1CN(C)Cc1ccc(-c2ccccc2)cc1 | -35.37
Cc1ccc(-c2ccc([C@H]3[C@@H](CO)N4CCCCN(C(=O)Nc5cccc(F)c5)C[C@H]34)cc2)cc1 | -76.65
O=C(Nc1ccc(F)cc1)N1CCCCN2[C@H](CO)[C@H](c3ccc(C#CC4CC4)cc3)[C@H]2C1 | -65.81
CN1C(=O)c2cc(NC(=O)c3cccc(F)c3)ccc2OC[C@@H]2O[C@@H](CC(=O)NCC3CCCCC3)CC[C@H]21 | -37.68
O=C(c1ccc(F)cc1)N1CC(=O)N2[C@H](CO)[C@H](c3ccc(C#CC4CC4)cc3)[C@H]2C1 | -55.02
C[C@H](CO)N1C[C@H](C)[C@H](CN(C)C(=O)NC2CCCCC2)OCCCC[C@H](C)Oc2ccc(NS(=O)(=O)c3ccc(F)cc3)cc2C1=O | -51.28
C[C@@H]1CN([C@@H](C)CO)C(=O)Cc2cc(NC(=O)C3CC3)ccc2O[C@@H]1CN(C)Cc1ccc(Cl)c(Cl)c1 | -40.39
COc1ccc(C#Cc2ccc([C@@H]3[C@@H](CO)N4CCCCN(C(=O)Cc5cccnc5)C[C@H]34)cc2)cc1 | -57.45
C[C@@H]1CCCCO[C@H](CN(C)Cc2ccncc2)[C@H](C)CN([C@@H](C)CO)C(=O)c2cc(NC(=O)C3CCCCC3)ccc2O1 | -49.43
O=C(C[C@H]1CC[C@@H]2[C@H](COC[C@@H](O)CN2C(=O)Nc2ccc(Cl)c(Cl)c2)O1)NCc1ccc(Cl)c(Cl)c1 | -80.57
OC[C@H]1[C@@H](c2ccc(/C=C/c3ccccc3)cc2)[C@@H]2CN(Cc3cncnc3)CCCCN12 | -51.74
COc1ccc(C#Cc2ccc3c(c2)O[C@H](CN(C)C(=O)c2ccccn2)[C@@H](C)CN([C@@H](C)CO)S3(=O)=O)cc1 | -43.9
COc1ccc(CN(C)C[C@H]2OCCCC[C@H](C)Oc3ccc(NC(=O)NC4CCCCC4)cc3C(=O)N([C@H](C)CO)C[C@@H]2C)cc1 | -43.84
C[C@@H]1CN([C@@H](C)CO)C(=O)Cc2cc(NS(=O)(=O)c3ccc(F)cc3)ccc2O[C@H]1CN(C)Cc1ccc(C(F)(F)F)cc1 | -91.09
C[C@@H]1CCCCO[C@@H](CN(C)C(=O)NC2CCCCC2)[C@H](C)CN([C@H](C)CO)C(=O)c2cc(NC(=O)Cc3ccccc3)ccc2O1 | -36.5
COc1ccc(C#Cc2ccc([C@H]3[C@@H](CO)N4CCCCN(C(=O)c5ccncc5)C[C@H]34)cc2)cc1 | -45.59
C[C@@H]1CN([C@@H](C)CO)S(=O)(=O)c2ccc(C#Cc3ccccn3)cc2O[C@@H]1CN(C)Cc1ccc(F)cc1 | -41.71
O=C(C[C@H]1CC[C@H]2[C@@H](COC[C@@H](O)CN2Cc2ccccc2F)O1)N1CCc2ccccc2C1 | -28.87
CCCC#Cc1ccc([C@@H]2[C@H](CO)N3CCCCN(C(=O)c4ccc5c(c4)OCO5)C[C@@H]23)cc1 | -45.57
CCCNC(=O)N1[C@H](CO)[C@@H](c2ccc(-c3ccccc3F)cc2)[C@@H]1C#N | -34.36
COc1ccccc1-c1cccc(-c2nc(C(=O)Nc3nccs3)cc3c2[C@H](CCO)N(C(C)=O)C3)c1 | -25.03
C[C@@H]1CN([C@H](C)CO)C(=O)Cc2cc(NC(=O)CCCCCC(=O)Nc3ccccc3N)ccc2O[C@@H]1CN(C)Cc1ccc(C(F)(F)F)cc1 | -48.42
C[C@H]1CN([C@@H](C)CO)S(=O)(=O)c2ccc(C#Cc3ccccc3F)cc2O[C@H]1CN(C)C(=O)Cc1ccncc1 | -31.37
C[C@H](CO)N1C[C@H](C)[C@H](CN(C)C(=O)Nc2ccc(F)cc2)Oc2c(NC(=O)Nc3ccc(F)cc3)cccc2C1=O | -26.35
C[C@H](CO)N1C[C@H](C)[C@@H](CN(C)Cc2ccc(C(F)(F)F)cc2)Oc2ccc(NC(=O)NC3CCCCC3)cc2CC1=O | -41.84
O=C(Nc1ccc(F)cc1)N1CCCCN2[C@H](CO)[C@@H](c3ccc(-c4ccccc4F)cc3)[C@H]2C1 | -70.39
Cc1ccc(-c2ccc3c(c2)O[C@H](CN(C)Cc2ccccn2)[C@H](C)CN([C@@H](C)CO)S3(=O)=O)cc1 | -29.48
O=C(C[C@@H]1CC[C@@H]2[C@H](COC[C@@H](O)CN2Cc2ccc(C(F)(F)F)cc2)O1)NCCc1ccccc1 | -41.51
C[C@H]1CN([C@@H](C)CO)S(=O)(=O)c2ccc(-c3ccccc3)cc2O[C@H]1CN(C)C(=O)c1ccc2c(c1)OCO2 | -29.84
C[C@@H]1CCCCO[C@@H](CN(C)Cc2ccc(C(F)(F)F)cc2)[C@H](C)CN([C@@H](C)CO)C(=O)c2cc(NS(=O)(=O)c3ccc(F)cc3)ccc2O1 | -51.47
C[C@H]1CN([C@@H](C)CO)S(=O)(=O)c2ccc(C#CCC3CCCC3)cc2O[C@H]1CN(C)C(=O)c1ccccn1 | -70.21
COc1ccc(C(=O)N2C[C@H]3[C@@H](c4ccccc42)[C@H](CO)N3Cc2ccc(Cl)cc2)cc1 | -38.15
CC(C)CC#Cc1ccc2c(c1)O[C@@H](CN(C)Cc1ccc3c(c1)OCO3)[C@H](C)CN([C@H](C)CO)S2(=O)=O | -37.49
C[C@@H]1CCCCO[C@@H](CN(C)CC2CCCCC2)[C@@H](C)CN([C@@H](C)CO)C(=O)c2cc(NC(=O)Nc3ccccc3)ccc2O1 | -63.81
COc1ccc(S(=O)(=O)N(C)C[C@H]2Oc3ncc(/C=C/c4ccccc4)cc3C(=O)N([C@H](C)CO)C[C@@H]2C)cc1 | -35.72
Cc1ccc(-c2ccc3c(c2)O[C@H](CN(C)C(=O)Nc2ccc(C(F)(F)F)cc2)[C@@H](C)CN([C@H](C)CO)S3(=O)=O)cc1 | -69.07
COc1ccc(C#Cc2ccc([C@H]3[C@H](CO)N4CCCCN(C(=O)c5ccncc5)C[C@@H]34)cc2)cc1 | -29.84
COc1ccc(C#Cc2cnc3c(c2)C(=O)N([C@@H](C)CO)C[C@H](C)[C@@H](CN(C)C(=O)c2ccccc2F)O3)cc1 | -41.6
O=C(C[C@H]1CC[C@@H]2[C@H](COC[C@H](O)CN2Cc2ccc(Cl)cc2)O1)NCc1ccccc1Cl | -25.45
N#Cc1cc(NC(=O)c2ccc(Cl)cc2)ccc1Sc1ccccc1 | -32.57
C[C@@H]1CCCCO[C@H](CN(C)Cc2ccc3c(c2)OCO3)[C@@H](C)CN([C@@H](C)CO)C(=O)c2cc(NS(=O)(=O)c3ccc(Cl)cc3)ccc2O1 | -60.15
Cc1ccc(S(=O)(=O)N(C)C[C@@H]2OCCCC[C@H](C)Oc3ccc(NS(=O)(=O)c4ccc(F)cc4)cc3C(=O)N([C@H](C)CO)C[C@H]2C)cc1 | -27.48
C[C@H]1CN([C@@H](C)CO)S(=O)(=O)c2ccc(-c3ccc(F)cc3)cc2O[C@H]1CN(C)C(=O)Nc1ccccc1F | -42.72
O=C(Nc1ccccc1)N1CCCCN2[C@H](CO)[C@H](c3ccc(C#Cc4ccccc4)cc3)[C@@H]2C1 | -45.63
Cc1ccc(OC(=O)N(C)C[C@@H]2OCc3ccccc3-c3c(n(C)c4ccccc34)C(=O)N([C@@H](C)CO)C[C@@H]2C)cc1 | -59.54
Cc1ccc(S(=O)(=O)Nc2ccc3c(c2)C(=O)N([C@H](C)CO)C[C@@H](C)[C@H](CN(C)C(=O)Nc2ccccc2)OCCCC[C@@H](C)O3)cc1 | -27.26
C[C@@H]1CCCCO[C@@H](CN(C)Cc2ccc(Cl)c(Cl)c2)[C@@H](C)CN([C@H](C)CO)C(=O)c2cc(NC(=O)Cc3ccccc3)ccc2O1 | -40.07
COc1ccc(CN(C)C[C@@H]2OCCCC[C@H](C)Oc3ccc(NC(=O)C4CCCCC4)cc3C(=O)N([C@H](C)CO)C[C@@H]2C)cc1 | -45.41
O=C(Nc1ccccc1)N1C[C@@H]2N[C@H](C1)C2c1ccc(-c2ccccc2)cc1 (stereo partly drawn) | -81.87
COc1ccc(S(=O)(=O)N(C)C[C@H]2OCCCC[C@H](C)Oc3ccc(NS(=O)(=O)c4c(C)noc4C)cc3C(=O)N([C@H](C)CO)C[C@@H]2C)cc1 | -47.07
O=C1CN(S(=O)(=O)Cc2ccccc2)C[C@@H]2[C@@H](c3ccc(C#Cc4ccccc4)cc3)[C@@H](CO)N12 | -81.86

For reference, 7 entries once more:

structure,activity change (Venus) (%)
CC(C)CC#Cc1ccc2c(c1)O[C@@H](CN(C)Cc1ccc3c(c1)OCO3)[C@H](C)CN([C@H](C)CO)S2(=O)=O,-37.49
Cc1ccc(OC(=O)N(C)C[C@@H]2OCc3ccccc3-c3c(n(C)c4ccccc34)C(=O)N([C@@H](C)CO)C[C@@H]2C)cc1,-59.54
Cc1ccc(S(=O)(=O)N(C)C[C@@H]2OCCCC[C@H](C)Oc3ccc(NS(=O)(=O)c4ccc(F)cc4)cc3C(=O)N([C@H](C)CO)C[C@H]2C)cc1,-27.48
C[C@H](CO)N1C[C@H](C)[C@H](CN(C)S(=O)(=O)c2ccc(C(F)(F)F)cc2)OCc2ccccc2-c2ccccc2C1=O,-40.95
O=C(C[C@H]1CC[C@@H]2[C@H](COC[C@@H](O)CN2C(=O)Nc2ccc(Cl)c(Cl)c2)O1)NCc1ccc(Cl)c(Cl)c1,-80.57
O=C1CN(S(=O)(=O)Cc2ccccc2)C[C@@H]2[C@@H](c3ccc(C#Cc4ccccc4)cc3)[C@@H](CO)N12,-81.86
COc1ccc(C(=O)N2C[C@H]3[C@@H](c4ccccc42)[C@H](CO)N3Cc2ccc(Cl)cc2)cc1,-38.15